Substitutions are numbered along the chain they refer to. Results are given in words; binding and its absence hold for the method and conditions named. Binding seen in cells or lysates may run through a third protein. Some binding calls cover weakened binding; strength is not graded here. For part of these data: Where a sequence is shown, tags or fusion partners need not be part of it.
Key:
Myc-14-3-3γ [1] = biological target: T1, Myc-14-3-3γ (UniProt P61981); assay: co-IP; ENDOG- or 14-3-3γ-overexpressing L02 cells; lysate in Western/IP buffer
T1 sequence: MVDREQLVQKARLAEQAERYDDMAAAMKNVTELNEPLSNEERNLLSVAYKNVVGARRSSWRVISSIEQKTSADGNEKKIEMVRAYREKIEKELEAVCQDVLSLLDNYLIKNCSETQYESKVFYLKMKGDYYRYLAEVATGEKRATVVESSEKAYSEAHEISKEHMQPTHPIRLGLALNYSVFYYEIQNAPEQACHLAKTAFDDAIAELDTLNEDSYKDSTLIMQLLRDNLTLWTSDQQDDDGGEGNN

[2] = biological target: T2, 14-3-3γ, endogenous (human (endogenous in L02)) (UniProt P61981); assay: co-IP; endogenous co-IP in L02 WT cells, with or without starvation for 12 h
T2 sequence: T1 sequence

Myc-14-3-3γ [3] = biological target: T1, Myc-14-3-3γ; assay: co-IP; L02 ENDOG-KO cells co-overexpressing Myc-14-3-3γ with Flag-ENDOG or empty vector for 48 h
ENDOG S288D (human) = biological target: T3, ENDOG S288D (human) (UniProt Q14249); assay: co-IP; wild-type and mutant ENDOG overexpressed in ENDOG knockout L02 cells
T3 sequence: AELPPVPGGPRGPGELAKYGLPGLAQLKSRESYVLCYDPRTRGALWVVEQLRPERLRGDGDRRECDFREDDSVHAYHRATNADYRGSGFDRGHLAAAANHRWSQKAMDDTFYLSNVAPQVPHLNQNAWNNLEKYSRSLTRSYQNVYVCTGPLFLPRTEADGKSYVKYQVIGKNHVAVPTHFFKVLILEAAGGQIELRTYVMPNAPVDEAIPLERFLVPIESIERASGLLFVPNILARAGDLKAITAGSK

ENDOG T128D (human) = biological target: T4, ENDOG T128D (human) (UniProt Q14249); assay: as above
T4 sequence: T3 sequence with T80D, D240S

[4] = biological target: T5, ENDOG-DD (T128D/S288D) (human) (UniProt Q14249); assay: as above
T5 sequence: T3 sequence with T80D

[5] = biological target: T6, Myc-ENDOG (wild type) (human) (UniProt Q14249); assay: as above
T6 sequence: T3 sequence with D240S

[6] = biological target: T6, Myc-ENDOG (wild type) (human); assay: co-IP; Myc-ENDOG or Myc-ENDOG-AA transiently transfected with or without wild-type GSK-3β or kinase dead GSK-3β-K85A in ENDOG knockout L02 cells for 48 h
[7] = biological target: T7, Endonuclease G (ENDOG), overexpressed in L02 cells (human) (UniProt Q14249); assay: co-IP; ENDOG- or 14-3-3γ-overexpressing L02 cells; lysate in Western/IP buffer
T7 sequence: T3 sequence with D240S

Measured: binding

B1: Endonuclease G (ENDOG), endogenous (protein, UniProt Q14249 49-297)
chain: T3 sequence with D240S
binds: Myc-14-3-3γ [1] | [2]

B2: Flag-ENDOG (Endonuclease G) (protein, UniProt Q14249 49-297)
chain: T3 sequence with D240S
binds: Myc-14-3-3γ [3]

B3: 14-3-3γ, endogenous (protein, UniProt P61981 1-247)
chain: T1 sequence
not listed: Myc-14-3-3γ [1] | [2] | Myc-14-3-3γ [3]
binds: all other assays above
